US20140105900A1 (Amgen, published 2014)
No constants are given. Whether binding was seen depends on the method and setting. Some entries that bind do so weakly or less than the wild type.

Protein sequences, listed by entry. Tags and fused reporters are not part of them. Lines headed by an entry give the natural chain unless they say otherwise; changes in a name come on top. Chains listed by the source or under a name are the forms on record and can include a tag or linker.
cynomolgus IL-21 receptor on cells (G7Q0S8, form named): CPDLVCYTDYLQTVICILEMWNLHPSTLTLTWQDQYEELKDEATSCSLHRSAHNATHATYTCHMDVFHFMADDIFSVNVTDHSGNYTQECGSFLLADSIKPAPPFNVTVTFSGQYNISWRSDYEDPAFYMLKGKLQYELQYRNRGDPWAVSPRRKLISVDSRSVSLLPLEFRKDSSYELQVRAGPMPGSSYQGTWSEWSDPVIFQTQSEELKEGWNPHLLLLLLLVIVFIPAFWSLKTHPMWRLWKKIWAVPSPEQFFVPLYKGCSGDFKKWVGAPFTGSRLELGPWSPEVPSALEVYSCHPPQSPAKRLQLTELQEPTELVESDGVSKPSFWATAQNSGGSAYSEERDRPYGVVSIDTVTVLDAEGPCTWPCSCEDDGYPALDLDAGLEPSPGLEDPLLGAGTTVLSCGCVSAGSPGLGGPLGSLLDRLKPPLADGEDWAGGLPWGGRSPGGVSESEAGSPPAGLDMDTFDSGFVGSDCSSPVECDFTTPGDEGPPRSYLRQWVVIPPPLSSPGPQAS

Target: cynomolgus IL-21 receptor on cells (cynomolgus monkey, UniProt G7Q0S8 41-559)
Experiment: flow cytometry, full length cyno IL-21R on 293T cells

B1: 34H7 (antibody, V domains shown)
VH: EVQLVQSGAELKKPGESLKISCKGSGYRFTSYWIGWVRQMPGKGLEWMGIIYPGDSDTRYSPSFQGQVTISADKSISTAYLQWHSLKVSDTAMYYCASPGYSTRWYHFDYWGQGTLVTVSS
VL: EIVMTQSPATLSVSPGERATLSCRASQSISSSLVWYQQKPGQAPRLLIYGASTRATGIPARFSGSGSGTEFSLTISSLQSEDFAVYYCQQYNNWPLLTFGPGTKVDIKR
notes: Fully human antibody from XenoMouse, subcloned as a full IgG construct; also called anti-IL-21 receptor antibody 34H7; IL-21R mAb 34H7
With B1 the binding was “binds”.

B2: 30G3 (antibody, V domains shown)
VH: QVQLQESGPGLVKPSETLSLTCTVSGGSISSYYWSWIRQPAGKGLEWIGRIYTSGSTYFNPSLKSRVTMSVDTSKNQFSLKLSSVTAADTAVYYCARGRELLDYWGQGTLVTVSS
VL: EVVLTQSPGTLSLSPGERATLSCRASQSFSSSYLAWYQQKPGQAPRLLIFGASSRATGIPDRFSGSGSGTDFTLTINRLEPEDFALYYCQQYGRSPLTFGGGTKVEIKR
notes: Fully human antibody from XenoMouse; also called anti-IL-21 receptor antibody 30G3; IL-21R mAb 30G3
In the case of B2, the binding is reported as “binds”.
